Earlier results as cited in US11883525B2, “Bioerodible polyester polymer axitinib ocular implants and related methods of use” (Dose Medical Corporation, priority 2019, dated 2024).
At least one structure is not confirmed: it was looked up by name or label, or the drawing left a doubt.

Assays:
tyrosine kinases = conditions: cellular IC50; read-out: IC50/EC50; cited from earlier work
vascular leakage = conditions: systemic administration by an infusion pump; cited from earlier work

SMILES	IC50 (tyrosine kinases) [nM]	effect on vascular leakage (vascular leakage)
Cc1ccc(Nc2nccc(N(C)c3ccc4c(C)n(C)nc4c3)n2)cc1S(N)(=O)=O [Pazopanib]	30	–
CNC(=O)c1ccccc1Sc1ccc2c(/C=C/c3ccccn3)n[nH]c2c1 [Axitinib]	–	inhibited vascular leakage
